Reference: US20070020269A1 (published 2007)
No constants are given. Whether binding was seen depends on the method and setting. For part of these data: In cells and extracts the contact can be indirect. Some binding calls cover weakened binding; strength is not graded here. Where a sequence is shown, tags or fusion partners need not be part of it.

Sequences of proteins named here, by UniProt entry; tags and fusion partners are left off. A change or cut given only in a name is not applied to a line headed by its entry. Residues count along the entry.
UniProt P30281: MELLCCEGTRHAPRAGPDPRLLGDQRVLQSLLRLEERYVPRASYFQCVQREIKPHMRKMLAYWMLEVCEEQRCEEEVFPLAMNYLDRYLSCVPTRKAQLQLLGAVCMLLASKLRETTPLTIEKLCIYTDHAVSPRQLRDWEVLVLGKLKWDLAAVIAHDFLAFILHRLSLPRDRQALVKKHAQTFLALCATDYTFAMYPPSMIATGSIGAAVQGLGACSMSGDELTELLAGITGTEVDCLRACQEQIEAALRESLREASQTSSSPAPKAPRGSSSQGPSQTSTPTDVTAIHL
UniProt P38936: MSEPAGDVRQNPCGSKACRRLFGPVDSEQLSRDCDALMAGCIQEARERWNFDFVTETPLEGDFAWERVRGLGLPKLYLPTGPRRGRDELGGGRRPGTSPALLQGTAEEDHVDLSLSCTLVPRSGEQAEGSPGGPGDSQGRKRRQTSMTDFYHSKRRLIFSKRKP
p21-N: residues 1-89 of P38936
endogenous p21: residues 2-164 of P38936
p21-D1: residues 20-164 of P38936
p21-D2: residues 40-164 of P38936

Assays:
[1] = target: cyclin D3 (yeast two-hybrid clone) (UniProt P30281); test: Gal4 yeast two-hybrid screen of Hela, lymph and fetal brain libraries
[2] = target: p21 (positive clone of the yeast two-hybrid screen) (UniProt P38936); test: as above
[3] = target: cyclin D3 (yeast two-hybrid clone) (UniProt P30281); test: yeast two-hybrid, panel of cyclins
myc-p21 [4] = target: myc-p21 (UniProt P38936); test: co-immunoprecipitation, 293T cells co-transfected with flag-RX50 and myc-p21
HA-cyclin D3 [5] = target: HA-cyclin D3 (UniProt P30281); test: co-immunoprecipitation (anti-flag IP, anti-HA blot), 293T cells co-transfected with RX50, cyclin D3 and p21
HA-cyclin D3 [6] = target: HA-cyclin D3 (UniProt P30281); test: co-immunoprecipitation
endogenous p21 [7] = target: endogenous p21 (UniProt P38936); test: co-immunoprecipitation
HA-cyclin D3 [8] = target: HA-cyclin D3 (UniProt P30281); test: co-immunoprecipitation (anti-flag IP, anti-HA blot), 293T cells co-transfected with RX50 and cyclin D3
endogenous p21 [9] = target: endogenous p21 (UniProt P38936); test: co-immunoprecipitation (anti-p21 IP, anti-flag blot), 293T cells transfected with RX50
HA-cyclin D3 [10] = target: HA-cyclin D3 (UniProt P30281); test: co-immunoprecipitation, 293T cells transfected with flag-RX50 and HA-cyclin D3
p21-N = p21-N (UniProt P38936); test: co-immunoprecipitation (anti-myc IP, anti-flag blot), co-transfected 293T cells
myc-p21 [11] = target: myc-p21 (UniProt P38936); test: as above
p21-D1 = p21-D1 (UniProt P38936); test: as above
p21-D2 = p21-D2 (UniProt P38936); test: as above
HA-cyclin D3 [12] = target: HA-cyclin D3 (UniProt P30281); test: co-immunoprecipitation, 293T cells transfected with flag-RX50, myc-p21 and HA-cyclin D3

Measured: binding

B1: RX50 bait (RX50 gene in modified fusion plasmid pGBKT7, Gal4 yeast two-hybrid system) (enzyme, not shown: large carriers)
chain: MHGYFGCNAAAEPGYSAFVGTPQICVTKFSTRNCQGMDSVIKPLDTIPEDKKVRVQRTQSTFDPFEKPANQVKRVHSENNACINFKTSSTGKESPKVRRHSSPSSPTSPKFGKADSYEKLEKLGEGSYAYVYKGKSKVNGKLVALKVIRLQEEEGTPFTAIREASIIKGLKHANIVLLHDIIHTKETLTLVFEYYHTDLCQYMDKHPGGLHPDNVKLFLFQLLRGLSYIHQRYILHRDLKPGNLLISDTGELKLADFGLAKAKSVPSHTTSNEVVYLWYRPPDVLLGSTEYSTCLDMWGVGCIFVEMIQGVAAFPGMKDIQDQLERIFLVLGTPNEDTWPGVHSLPHFKPERFTLYSSKNLRQAWNKLSYVNHAEDLASKLLQCSPKNRLSAQAALSHEYFSDLPPRLWELTDMSSIFTVPNVRLQPEAGESMRAFGKNNSYGKSLSNSKH
binds: [1] | [2] | [3]

B2: Flag-RX50 (enzyme)
chain: MHGYFGCNAAAEPGYSAFVGTPQICVTKFSTRNCQGMDSVIKPLDTIPEDKKVRVQRTQSTFDPFEKPANQVKRVHSENNACINFKTSSTGKESPKVRRHSSPSSPTSPKFGKADSYEKLEKLGEGSYAYVYKGKSKVNGKLVALKVIRLQEEEGTPFTAIREASIIKGLKHANIVLLHDIIHTKETLTLVFEYYHTDLCQYMDKHPGGLHPDNVKLFLFQLLRGLSYIHQRYILHRDLKPGNLLISDTGELKLADFGLAKAKSVPSHTTSNEVVYLWYRPPDVLLGSTEYSTCLDMWGVGCIFVEMIQGVAAFPGMKDIQDQLERIFLVLGTPNEDTWPGVHSLPHFKPERFTLYSSKNLRQAWNKLSYVNHAEDLASKLLQCSPKNRLSAQAALSHEYFSDLPPRLWELTDMSSIFTVPNVRLQPEAGESMRAFGKNNSYGKSLSNSKH
notes: Expressed in transfected 293T cells; also called RX50 protein; not shown: N-terminal flag-tag from modified pcDNA3.1
not listed: [1] | [2] | [3]
binds: all other assays above
